# According to PubChem BioAssay AID192 (DTP/NCI, 2004):
# The list does not hold the whole screen: it gathers tests that were run many times, whatever their T/C, doses with no T/C, and many T/C values between a quarter and a half above the control. Further doses and runs are listed elsewhere. T/C gives the treated animals as a percentage of the vehicle group. Some doses have a count of surviving animals in place of a T/C: the source holds a T/C of zero for them, seemingly a mark for toxic or unscored doses. Some doses without a T/C left all or most animals alive at the check, yet need not have been tolerated: the source hardly ever lists a survival T/C far under the control, and the zero likely stands for such cases as well. Survivors were counted at the toxicity check, usually on the fifth day, unless a day is given; later deaths do not show. Schedules are NCI's codes, taken here to give the interval after Q, in days (D) or hours (H), and the number of doses after X. Where survival is the endpoint, this PubChem deposit counts one and a half times the control or more as active, and values a quarter to a half above the control carry no call in these data; other NCI protocols may use other cut-offs.
# Test system: BDF1 mice, B16 melanoma ip, median survival T/C
# Assay: NCI In Vivo Anticancer Drug Screen. Data for tumor model B16 Melanoma (intraperitoneal) in B6D2F1 (BDF1) mice
# Conditions: T/C endpoint: median survival time, schedule: Q01DX009 (ip), vehicle: saline with Tween-80, higher T/C = longer survival
# Outline: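 Antitumor activity is assessed in mice bearing a transplanted tumor, with survival or tumor size compared against vehicle-dosed controls and expressed as T/C.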
smiles,measurement,setting,value
CCC[CH2][Sn]1([CH2]CCC)[O]OC(c2ccccc2)[O]1 (stereo not given),T/C,dose: 0.75 mg/kg/injection,131 % of control
same,T/C,dose: 1.5 mg/kg/injection,125 % of control
same,survivor count,dose: 6.0 mg/kg/injection,8 of 10
same,survivor count,dose: 12.0 mg/kg/injection,3 of 10
same,survivor count,dose: 24.0 mg/kg/injection,0 of 10
